Positions count from the first letter of the chain named. Results are given in words; binding and its absence hold for the method and conditions named. Some binding calls cover weakened binding; strength is not graded here.

Protein sequences, listed by entry. Tags and fused reporters are not part of them. Residues count along the entry.
UniProt Q8NHL6, residues 24-650: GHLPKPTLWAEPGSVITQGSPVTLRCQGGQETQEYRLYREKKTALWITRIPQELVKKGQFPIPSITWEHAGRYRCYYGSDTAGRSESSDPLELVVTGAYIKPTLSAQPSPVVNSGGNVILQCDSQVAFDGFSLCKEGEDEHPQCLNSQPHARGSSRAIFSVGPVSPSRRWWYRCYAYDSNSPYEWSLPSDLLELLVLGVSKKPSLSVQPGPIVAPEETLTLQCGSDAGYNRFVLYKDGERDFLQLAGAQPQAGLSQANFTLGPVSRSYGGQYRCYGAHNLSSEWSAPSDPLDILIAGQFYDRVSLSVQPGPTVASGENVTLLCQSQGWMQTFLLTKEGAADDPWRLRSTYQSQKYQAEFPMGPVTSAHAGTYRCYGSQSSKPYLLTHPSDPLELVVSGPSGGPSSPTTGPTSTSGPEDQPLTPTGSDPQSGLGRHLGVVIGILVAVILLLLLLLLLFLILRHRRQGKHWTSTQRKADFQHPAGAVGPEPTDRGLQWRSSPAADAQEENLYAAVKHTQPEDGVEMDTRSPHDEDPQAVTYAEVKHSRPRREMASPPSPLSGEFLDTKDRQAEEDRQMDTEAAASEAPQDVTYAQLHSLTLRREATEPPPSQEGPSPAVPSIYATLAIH

The source of these data is US20240043533A1.

The target in test [1] is Cyno LILRB5 (Macaca fascicularis). In words: FACS on cells expressing cyno LILRB5, labeled anti-mouse Fc secondary antibody.
A further test deals with LILRB1 (human) (UniProt Q8NHL6). Nature of the test: FACS on cells expressing human LILRB1, labeled anti-mouse Fc secondary antibody.

B1: anti-ILT3 antibody 16C5 (antibody, V domains shown)
VH: EVQLQQSGPELVKPGASVKISCKASGYTFTDYNMDWVKQSHGKSLEWIGYIYPSNGGTGYNQKFKSKATLTVDKSSNTAYMELHSLTSEDSAVYYCARVPYYDYLYYYAMDYWGQGTSVTVSS
VL: QIVLSQSPAILSASPGEKVTMACRASSSVSFMHWYQQKPGSSPQPWIYATSNLASGVPARFSGSGSGTSYSLTISRVEAEDAATYYCQQWSTNPYMYTFGGGTKLEIK
Regarding B1, the results for the binding result (in test [1]; with LILRB1 (human)) were “binds” and “no binding (tested: log [Ab] about -7.2 M (about 6e-8 M))”, respectively.

B2: anti-ILT3 antibody 53F10 (antibody, V domains shown)
VH: EVQVVESGGGLVKPGGSLKLSCAASGFTFSDYGMHWVRQAPEKGLEWVAYISTGIITVYYADTVKGRFTMSRDNAKNTLFLQMTSLRSEDTAIYYCARADGRGAMDYWGQGTSVIVSS
VL: DIQMTQTTSSLSASLGDRVTISCRASQDISNFLNWYQQKPDGTVTLLIYYTSRLHSGVPSRFSGSGSGTDYSLTISNLEQEDFATYFCQQGNTLPWTFGGGTKLEIK
With B2, in the test with LILRB1 (human), the binding result was “no binding (tested: log [Ab] about -7.2 M (about 6e-8 M))”.

B3: anti-ILT3 antibody 48A6 (antibody, V domains shown)
VH: EVQLVESGGDLMKPGGSLKLSCAASGFTFSSYGMSWVRQTPDKRLEWVATISSGGTYTFYPDSVKGRFTISRDNAKNTLYLQMSSLKSEDTAMYYCARRGWLLHYYAMDYWGQGTSVTVSS
VL: NIVLTQSPASLAVSLGQRATISCRPSESVDSFGNSFMHWFQQKPGQPPKLLIYLSSKLESGVPARFSGSGSRTDFTLTIDPVEADDAATYYCQQHNEDPFTFGSGTKLEIK
B3: the binding result with LILRB1 (human) was “no binding (tested: log [Ab] about -7.2 M (about 6e-8 M))”.

B4: anti-ILT3 antibody 5A7 (antibody, V domains shown)
VH: EVKLVESGGGLVKPGGSLKLSCAASGFTFSSYGMSWVRQTPEKRLEWVATISGGGSYTNYPDSVKGRLTISRDNAKKNLYLEMSSLRSEDTALYYCARREWRMTLYAMDYWGQGTSVTVSS
VL: B3 VL with P25A, F32Y, F40Y, P47A, S55T, K57N, H95N
In the case of B4, the binding entry with LILRB1 (human) was “no binding (tested: log [Ab] about -7.2 M (about 6e-8 M))”.
